Cell number change and AC50 data for 62 molecules are collected here from PubChem BioAssay AID2685 (National Center for Advancing Translational Sciences (NCATS), 2010).

This is one part of the list. Further columns of the screen follow, without active or inactive calls. Most of these compounds were active or inconclusive in the main read-out, so they are no random draw. Words in brackets tell the shape of the fitted curve; partial curves, single points and poor fits give uncertain potencies.

The assay is described as follows: qHTS Assay for Lipid Storage Modulators in Drosophila S3 Cells.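 On Cell number change: cells counted by Cell Tracker Red CMTPX staining in the red channel.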 The following applies: BODIPY lipid droplet fluorescence, 18-24 h; for cell number change: measured here: cell count max response, cells fed with added oleic acid. A digest of the protocol:
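Drosophila S3 cells got compounds at several concentrations plus oleic acid (400 uM solution). Laser-scanning cytometry with 488 nm excitation read lipid droplets at 500-530 nm and cells at 575-640 nm. Percent activity was relative to 20 uM Triacsin C.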
For orientation: In qHTS, concentration-response curves come from the screen itself.

Where [1] appears, read: measured here: lipid fluorescence (Fed channel) AC50, cells fed with added oleic acid.
The mark [2] stands for this setting: measured here: cell number channel AC50, cells fed with added oleic acid.

As a reminder, the AC50 is the concentration giving half of the maximal activity seen. As for `COc1cc(C(=O)Nc2ccc3c(c2)OCCO3)ccc1-n1cnnn1`, the cell number change stood at 24.1%. The concentration at half-maximal activity (AC50) under setting [1] was 2.59 µM [rising, partial curve].

Consider `O=C(NCCc1c[nH]c2ccccc12)Nc1cccc2ccccc12`, for which, under setting [1], the AC50 is 29.1 µM [rising, single point].

As to `CC1CCCC(C)N1C(=O)COC(=O)CNC(=O)c1ccc(Cl)cc1Cl` (configuration not stated), the cell number change is -14.5%.

As to `Cc1ccc(CNC(N)=S)cc1`, the cell number change was -8.41%. Besides, the AC50 under setting [1] was 0.103 µM [falling, full curve, poor fit].

In the case of `CCCn1c(N)c(N(C)C)c(=O)n(CC(=O)Nc2ccc(OC(F)(F)F)cc2)c1=O`, the cell number change was 11.2%. Also, under setting [1], the AC50 was 6.51 µM [rising, single point].

Regarding `COc1cc([N+](=O)[O-])cc(/C=N/NC(=O)CSc2ccccn2)c1O`, the AC50 under setting [1] is 4.11 µM [rising, single point].

As to `Cc1ccc(-n2ncc3c(=O)n(CC(=O)Nc4cccc(Cl)c4)cnc32)cc1C`, the cell number change is -12.9%. Further, the AC50 under setting [1] is 29.1 µM [falling, single point].

Consider `O=C(COC(=O)C1CC(O)CN1S(=O)(=O)c1ccc(Cl)cc1)c1ccccc1Cl` (configuration not stated), for which the half-maximal activity concentration (AC50) under setting [1] is 20.6 µM [rising, partial curve].

Regarding `COc1ccccc1N1CCN(c2cnccn2)CC1`, the cell number change was found to be 26.6%. The AC50 under setting [2] is 6.51 µM [rising, single point].

As for `COc1cccc(-c2cnc(NCc3cc(Cl)ccc3O)n2C)c1`, the cell number change came out at 5.52%. Also, under setting [2], the AC50 is 5.8 µM [falling, single point]. For the same molecule, under setting [1], the AC50 is 4.11 µM [falling, single point].

Take `COc1ccc(Cl)cc1NC(=O)CN(C)C(=O)CCc1nc2ccccc2c(=O)[nH]1`: the cell number change was -24.7%. For the same molecule, the half-maximal activity concentration (AC50) under setting [1] was 2.59 µM [falling, partial curve].

In the case of `O=C(CCN1C(=O)[C@@H]2Cc3ccccc3CN2C1=O)NCc1ccccc1Cl`, the cell number change turned out to be 11.8%. The AC50 under setting [1] is 5.17 µM [rising, single point].

Regarding `COc1cc(NC(=O)c2cccs2)c(OC)cc1NC(=O)CCn1nnc2ccccc21`, the cell number change was -26%. For the same molecule, the AC50 under setting [2] is 0.231 µM [falling, full curve, poor fit]. Further, under setting [1], the AC50 was 0.164 µM [rising, full curve, poor fit].

In the case of `NS(=O)(=O)c1ccc(-n2nncc2C23CC4CC(CC(C4)C2)C3)cc1`, the cell number change was found to be 1.69%.

Consider `O=[N+]([O-])c1ccc(N2CCN(CCO)CC2)cc1Sc1ccccn1`, for which the cell number change was -32%. For the same molecule, the AC50 under setting [2] is 0.00461 µM [falling, full curve, poor fit].

For `Cc1ccccc1-n1nc(C)c2cc(C(=O)N3CCN(S(=O)(=O)c4ccc(F)cc4)CC3)sc21`, under setting [1], the AC50 is 6.51 µM [rising, single point].

For `COC(=O)c1ccc(Oc2nc(NC(C)(C)C)nc(N3CCOCC3)n2)cc1`, the AC50 under setting [1] was 0.116 µM [falling, full curve, poor fit].

On to `CCCCNc1c([N+](=O)[O-])ncn1C`, for which the cell number change is 0.359%. Moreover, under setting [1], the AC50 was 6.51 µM [falling, single point].

Turning to `O=C(Nc1cccc(F)c1)Nc1ccnn1C1CCN(C(=O)c2ccccn2)CC1`, the cell number change was -10.5%. In addition, the AC50 under setting [1] was 29.1 µM [falling, single point].

Turning to `CCOC(=O)c1c(NC(=O)C2CCCO2)sc(C(=O)OC(C)(C)C)c1C` (configuration not stated), the cell number change stood at 19.8%. The AC50 under setting [1] is 5.8 µM [rising, partial curve, poor fit].

As to `O=C(c1cccc(S(=O)(=O)N2CCCC2)c1)N1CCN(Cc2ccccc2)CC1`, the cell number change is -1.82%. The AC50 under setting [1] was 4.61 µM [falling, single point].

Regarding `O=C(NC1CCCCCCC1)c1cccc(S(=O)(=O)N2CCOCC2)c1`, the AC50 under setting [1] is 29.1 µM [rising, single point].

Turning to `Cc1cc(SCC(=O)NC2CCCC2)nc2ccccc12`, the cell number change worked out at 21.7%. In addition, the AC50 under setting [1] is 29.1 µM [rising, partial curve].

For the molecule `COc1ccccc1/C=C/C(=O)OCC(=O)Nc1ccccc1Sc1ccccc1`, the AC50 under setting [1] is 2.91 µM [rising, full curve, poor fit].

In the case of `Cc1ccc(C(=O)NCc2ccc(N3CCN(C)CC3)cc2)cc1C`, the cell number change worked out at 4.23%. For the same molecule, the AC50 under setting [1] was 29.1 µM [rising, single point].

Turning to `CC1CCCCN1C(=O)COc1ccc2ccc(=O)oc2c1` (configuration not stated), the AC50 under setting [1] is 0.00461 µM [falling, full curve, poor fit].

For the molecule `COc1ccc(NC(=O)CN(C)C(=O)c2cn(-c3ccccc3)nc2-c2ccc(Cl)cc2)cc1`, the cell number change is -15.4%.

For the molecule `Nc1ccc(C(=O)O)cc1`, the cell number change came out at 16%.

As for `Cc1ccc(C(=O)Nc2ccc(C)c(S(=O)(=O)Nc3ccccc3Cl)c2)s1`, the AC50 under setting [2] is 6.51 µM [rising, single point].

As to `CN(CC(=O)Nc1cc(S(=O)(=O)N2CCCC2)ccc1Cl)Cc1cccs1`, the cell number change stood at 15.9%.

Regarding `Cc1cc(C)cc(NC(=O)C2CCCC2)c1`, the cell number change amounted to 10%.

Take `NS(=O)(=O)c1cc(C(=O)N=Nc2c(O)[nH]c3ccccc23)ccc1Cl`: the cell number change was -59.6%. The AC50 under setting [2] is 0.00461 µM [falling, full curve, poor fit]. Further, under setting [1], the AC50 was 0.92 µM [falling, partial curve, poor fit].

Turning to `Cc1ccccc1NC(=S)NC(=O)Cc1ccc(Cl)cc1`, the cell number change is -37.3%. Further, the AC50 under setting [2] was 10.3 µM [falling, partial curve].

Turning to `Cc1ccccc1C(=O)Nc1cccc(C#N)c1`, the cell number change is 12.6%. Further, under setting [1], the concentration at half-maximal activity (AC50) is 8.2 µM [rising, partial curve, poor fit].

As to `O=S(=O)(c1ccccc1)N1CCN(C(=S)Nc2ccccc2)CC1`, the cell number change amounted to 32.4%.

Take `Cc1nn(CC(=O)NN)c(C)c1Br`: the cell number change is 13.3%. Further, the AC50 under setting [1] is 6.51 µM [falling, single point].

Regarding `O=C(Nc1nc2ccccc2s1)c1cc2c(s1)-c1ccccc1OC2`, the cell number change is -7.55%. Besides, under setting [2], the AC50 was 0.184 µM [rising, full curve]. Also, the AC50 under setting [1] was 0.326 µM [rising, full curve].

In the case of `O=C(Cc1c(F)cccc1Cl)Nc1ccc(S(=O)(=O)N2CCCC2)cc1`, the cell number change was found to be 16.7%.

Regarding `Cc1ccc(S(=O)(=O)N2CCN(S(=O)(=O)c3ccc4c(c3)OCCO4)CC2)cc1`, the cell number change was -6.33%. Also, under setting [1], the AC50 was 20.6 µM [falling, partial curve, poor fit].

Take `COc1ccc(CNC(=O)CSc2nc(C)cs2)cc1`: the cell number change was -9.74%. Under setting [1], the AC50 is 3.26 µM [falling, full curve, poor fit].

With `Cc1ccc(-n2cc(CCCCCCCCC(=O)O)nn2)cc1`, the cell number change stood at 12.9%.

Turning to `COc1ccc(CCNC(=O)c2noc(C(C)C)c2[N+](=O)[O-])cc1OC`, the cell number change is -42.5%. Besides, the AC50 under setting [2] was 13 µM [falling, partial curve, poor fit]. In addition, the half-maximal activity concentration (AC50) under setting [1] was 29.1 µM [falling, single point].

For the molecule `CCn1cc2nc(SCC(=O)Nc3ccc(OC)cc3OC)n(Cc3ccc(OC)cc3)c(=O)c2n1`, the cell number change was found to be 214%. The AC50 under setting [2] was 23.1 µM [rising, partial curve].

As for `CC(=O)Oc1ccc2c(=O)c(-c3ccccc3)coc2c1`, the cell number change is 1.94%. Besides, the AC50 under setting [1] is 0.461 µM [rising, single point].

In the case of `COc1ccc(OC)c(CNC(=O)C2CCCN(c3ncnc4c3nc3n4CCCCC3)C2)c1` (configuration not stated), under setting [1], the AC50 was 1.84 µM [falling, partial curve, poor fit].

Turning to `CCOC(=O)c1c(C)[nH]c(C(=O)OCC(=O)NCc2ccc(F)cc2)c1C`, the cell number change was -48.1%. The AC50 under setting [2] is 11.6 µM [falling, partial curve].

For the molecule `CCOC(=O)CC1C(=O)NCCN1Cc1cccs1` (configuration not stated), the cell number change came to 29.7%. Under setting [2], the AC50 was 1.84 µM [falling, single point]. Besides, under setting [1], the AC50 is 6.51 µM [falling, single point].

`COc1ccc(-c2csc(NC(=O)c3cccs3)c2C(=O)O)cc1OC`: under setting [2], the AC50 is 6.51 µM [falling, single point].

`CN(CC(=O)Nc1ccc(F)cc1)CC(=O)N1CCCCCC1`: the cell number change was -11.3%. In addition, the AC50 under setting [1] was 0.651 µM [falling, partial curve, poor fit].

With `COC(=O)c1ccc(C(=O)OC)c(-n2c(=O)c3ccccc3c3ccccc3c2=O)c1`, the cell number change is -34%. The AC50 under setting [2] was 20.6 µM [falling, single point]. Further, the AC50 under setting [1] was 20.6 µM [falling, single point].

As for `Cc1ccc(C(=O)CN2C(=O)NC3(CCCCC3C)C2=O)s1` (configuration not stated), the cell number change is -18.9%. Moreover, the AC50 under setting [1] was 4.11 µM [falling, full curve].

For the molecule `O=c1oc2ccccc2c(Nc2cccc(O)c2)c1[N+](=O)[O-]`, the cell number change turned out to be 0.809%. The AC50 under setting [1] is 0.206 µM [falling, full curve, poor fit].

With `CC(=O)Nc1ccc(S(=O)(=O)NCC2CCC(C(=O)NCCCN3CCCC3=O)CC2)cc1` (configuration not stated), the cell number change is -23.9%. The AC50 under setting [1] was 16.4 µM [falling, single point].

Consider `COc1ccc(-n2nc(C(=O)NCC(=O)NCCCN3CCN(C)CC3)c3ccccc3c2=O)cc1OC`, for which the cell number change is 48.7%. For the same molecule, the AC50 under setting [1] is 5.62 µM [falling, single point].

For `CCc1ccc(OCC(=O)NNC(=O)c2nn(CC)c(=O)c3ccccc23)cc1`, the cell number change amounted to 23.6%. In addition, under setting [2], the half-maximal activity concentration (AC50) was 0.411 µM [rising, full curve, poor fit].

Take `CCOc1nc(-c2ccc(OC)cc2)ccc1-c1noc(-c2ccncc2)n1`: the cell number change turned out to be 9.71%. Further, the AC50 under setting [2] is 6.51 µM [rising, single point]. Also, the AC50 under setting [1] was 23.1 µM [rising, partial curve].

As for `Cc1ccc(N2C(=O)SC(N(CC(=O)O)c3cccc(C)c3)C2=O)cc1` (configuration not stated), the cell number change was -11.9%. Besides, the AC50 under setting [1] is 0.82 µM [falling, full curve, poor fit].

Consider `O=C(O)c1ccccc1C(=O)c1cccs1`, for which the cell number change was -8.45%. In addition, under setting [1], the AC50 is 20.6 µM [falling, single point].

With `COc1ccc(-n2c(=S)[nH]c3cc(C(=O)NCc4ccco4)ccc3c2=O)cc1OC`, the cell number change was 37.6%.

Regarding `C/C(=N\NC(=O)c1ccc(O)cc1)c1ccc2c(c1)OCCO2`, the cell number change was found to be 17.8%. The AC50 under setting [1] was 6.51 µM [falling, single point].

Turning to `CC1(C)CC(=O)C2=C(C1)N(Cc1cccnc1)C(=O)C2(NC(=O)c1cccnc1)C(F)(F)F` (configuration not stated), the cell number change stood at 11.6%. For the same molecule, the AC50 under setting [1] was 6.51 µM [rising, single point].

For `COc1cccc(NC(=O)C(=O)c2cn(CC(=O)N3CCOCC3)c3ccccc23)c1`, the cell number change was 32.7%. Besides, the AC50 under setting [2] is 29.1 µM [rising, single point]. Also, the AC50 under setting [1] was 29.1 µM [rising, single point].
